# Small-molecule microarray binding calls

Targets (5′ to 3′):
TPP: TPP riboswitch RNA three-way junction, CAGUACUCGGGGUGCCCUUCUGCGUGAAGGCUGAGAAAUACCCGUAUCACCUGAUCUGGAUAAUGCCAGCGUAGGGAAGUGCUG. About 24,000 compounds screened, about 160 hits.
PreQ1: PreQ1 riboswitch RNA pseudoknot, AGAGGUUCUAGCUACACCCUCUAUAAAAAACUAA. From B. subtilis. About 24,000 compounds screened, about 170 hits.
SAM-II: SAM-II riboswitch RNA pseudoknot, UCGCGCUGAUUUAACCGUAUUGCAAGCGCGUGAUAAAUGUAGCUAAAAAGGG. About 21,000 compounds screened, about 200 hits.

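Compounds were printed on reactive glass slides in duplicate spots, a dye-labelled oligonucleotide was laid over them, and the fluorescence left after washing was read. For the PreQ1, TPP and SAM-II riboswitches the laboratory earlier reported (doi:10.1038/s41467-019-09493-3) 1 µM RNA, 2 h, and a rule that included a mean Z-score above 3 (spot signal-to-noise against the whole library), a score well above that on a control array, and duplicate spots agreeing (coefficient of variation under 100). The data file gives only the calls; its cut-offs may differ, and compounds hitting several targets are kept. These are primary screening calls, not affinities; a compound without a hit may have attached poorly or may still bind in solution.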
“1” means called a hit, “0” means screened and not called a hit.
The compounds are a random part of those screened.
A dash means that no call is listed here.

| Compound | TPP | PreQ1 | SAM-II |
|---|---|---|---|
| `OCC(O)Cn1cc(-c2cccc3c2oc2ccccc23)nn1` (stereo not given) | 0 | 0 | 0 |
| `O=C(CCc1ccc(F)cc1)N[C@H]1CN(CCO)C[C@@H]1C1CC1` | 0 | 0 | 0 |
| `CC12CN3CC(C)(CN(C1)C3c1ccc(O)cc1)C2O` (stereo not given) | 0 | 0 | 0 |
| `COc1ccc(S(=O)(=O)N2CCN(CCO)CC2)cc1` | 0 | 0 | 0 |
| `O=C(CCCN1CCN(c2ccc(F)cc2)CC1)NC1c2ccccc2CSc2ccccc21` (stereo not given) | 0 | 0 | 0 |
| `Cn1c(=O)[nH]c(=O)c2c1nc(N1CCOCC1)n2CC(O)COc1ccc([N+](=O)[O-])cc1` (stereo not given) | 0 | 0 | 0 |
| `COc1cc2c(cc1OC)CC(C(=O)NCCc1ccccc1)NC2` (stereo not given) | 0 | 0 | 0 |
| `Clc1cc(Br)ccc1-c1ccc(CNCc2cccnc2)o1` | 0 | 0 | - |
| `O=C(c1ccc(CSc2nnc[nH]2)o1)N(CC=Cc1ccccc1)CCO` | 0 | 0 | 0 |
| `Cc1ccc(CN2c3ccccc3C3=C(C(c4ccccc4C)C(C#N)=C(N)O3)S2(=O)=O)cc1` (stereo not given) | 0 | 0 | - |
| `NS(=O)(=O)c1ccc(Nc2cc(-c3ccccc3)ncn2)cc1` | 0 | 0 | - |
| `CC1(C(=O)N2CCc3[nH]nc(-c4ccc(Cl)cc4)c3C2)CCNCC1` | 0 | 0 | 0 |
| `O=C1c2ccccc2C(=O)c2cc(S(=O)(=O)NCCO)ccc21` | 0 | 0 | 0 |
| `C=CCN1C(=O)C2(C(C(=O)OC)=C(N)OC3=C2C(=O)CCC3)c2ccccc21` (stereo not given) | 0 | 0 | 0 |
| `O=C1c2[nH]nc(-c3ccccc3O)c2C(c2cccc(Cl)c2)N1CCCO` (stereo not given) | 0 | 0 | - |
| `CCNC(=O)[C@@H]1C[C@H](N)CN1C(=O)c1cccc2cc(C)oc12` | 0 | 0 | 0 |
| `CC(=O)[C@H]1CC[C@H]2[C@@H]3CCC4=CC(=O)CC[C@]4(C)[C@H]3CC[C@]12C` | 0 | 0 | 0 |
| `Cc1nccn1CC1CCc2c(c3ccccc3n2C)C1=O` (stereo not given) | 0 | 0 | 0 |
| `N=c1n(CCO)c2ccccc2n1Cc1ccccc1F` | 0 | 0 | 0 |
| `CC(C)OC(=O)Nc1ccc2c(c1)N(C(=O)CCN1CCN(CCO)CC1)c1ccccc1CC2.Cl.Cl.O` | 0 | 0 | 0 |
| `Nc1nc2c(c(NCc3ccsc3)n1)CCN(c1cnccn1)CC2` | 0 | 0 | 0 |
| `C[C@@]1(c2cc(-c3cncnc3)c(F)cc2F)CCSC(N)=N1` | 0 | 0 | 0 |
| `c1ccc(CN2CCCN(Cc3cc4n(n3)CCCNC4)CC2)nc1` | 0 | 0 | 0 |
| `CC(=O)/C=C(\C)Nc1ccccc1O` | 0 | 0 | 0 |
| `Cc1ccc(C)c(CC(=O)N2CCCC(O)(CO)C2)c1` (stereo not given) | 0 | 0 | 0 |
| `COC(=O)CC1(C(=O)OC)Nc2cc(Cl)c(Cl)cc2S(=O)(=O)N1O` (stereo not given) | 0 | 0 | 0 |
| `CCC(C)Nc1nc2c(S(=O)(=O)c3ccc(C)cc3)nnn2c2ccccc12` (stereo not given) | 0 | 0 | 0 |
| `FC(F)(F)c1cnc(NCc2cc3n(n2)CCCNC3)c(Cl)c1` | 0 | 0 | 0 |
| `CCOC(=O)c1cnc2c(-c3cccc(Cl)c3)c(C)nn2c1N` | 0 | 0 | - |
| `COc1ccc(S(=O)(=O)N2CCN([C@H]3CN(C)C[C@@H]3O)CC2)cc1` | 0 | 0 | 0 |
| `CC1CCCCN1Cc1nc2c(c(=O)n(C)c(=O)n2C)n1CCCO` (stereo not given) | 0 | 0 | 0 |
| `O=C(c1cnc(C23CC4CC(CC(C4)C2)C3)nc1O)N1C[C@@H]2C[C@H]1CN2` | 0 | 0 | 0 |
| `CN1C(=O)C2(C(C#N)=C(N)N(c3ccc(F)c(Cl)c3)C3=C2C(=O)OC3)c2ccccc21` (stereo not given) | 0 | 0 | 0 |
| `CCCN[C@H]1CS(=O)(=O)C[C@@H]1S(=O)(=O)c1ccc(Cl)cc1` | 0 | 0 | - |
| `C#CCOc1ccc(C2CC(=O)Nc3nc(N)sc32)cc1` (stereo not given) | 0 | 0 | 0 |
| `CCOc1ccc(-c2noc(-c3nnn(-c4cccc(OC)c4)c3N)n2)cc1` | 0 | 0 | - |
| `OC(c1ccccn1)C1CCN(c2ncnc3cc(F)ccc23)CC1` (stereo not given) | 0 | 0 | 0 |
| `CCS(=O)(=O)c1cccc(-c2cc(C(=O)NC3CCN(C)CC3)c(C)c3[nH]c4ncc(C)cc4c23)c1` | 0 | 0 | 0 |
| `Nc1ncnc2c1cnn2C1CCCCC1` | 0 | 0 | 0 |
| `Nc1nonc1C(=O)N1CCCN(C(=O)Nc2cccc(F)c2)CC1` | 0 | 0 | - |
| `Cc1ccc2nc(CNC(c3ccccn3)C(C)C)cc(O)c2c1` (stereo not given) | 0 | 0 | 0 |
| `CCc1ccc2oc(-c3ccc(C)c(N)c3)nc2c1` | 0 | 0 | 0 |
| `CS(=O)(=O)c1cnc(C2CCCC2)nc1C1CCCNC1` (stereo not given) | 0 | 0 | 0 |
| `Clc1ccc(C2(c3ccc(-c4cn[nH]c4)cc3)CCNCC2)cc1` | 0 | 0 | 0 |
| `COc1ccc(-c2csc(NCc3ccccc3)n2)cc1OC` | 0 | 0 | 0 |
| `N[C@@H](Cc1ccc(O)cc1)C(=O)N1CCc2c(nc(-c3cccnc3)[nH]c2=O)C1` | 0 | 0 | 0 |
| `CC(C)(C)NC(=O)[C@H]1CC[C@H]2[C@@H]3CC[C@H]4NC(=O)C=C[C@]4(C)[C@@H]3CC[C@]12C` | 0 | 0 | 0 |
| `Cc1ccc(-n2c(NCCO)nc3c(c2=O)C2(CCCC2)Cc2ccccc2-3)cc1` | 0 | 0 | 0 |
| `CCCCc1c(C)nc(N)nc1NCc1nccn1C` | 0 | 0 | 0 |
| `CN(Cc1cnn(-c2ccc(F)cc2)c1)C(=O)C(O)c1ccc(F)cc1` (stereo not given) | 0 | 0 | 0 |
| `COc1cccc(N2C(=O)c3cccnc3C2Nc2ccc(C)cc2)c1` (stereo not given) | 0 | 0 | 0 |
| `Cc1ccc(Cn2c(CO)nc3ccccc32)cc1` | 0 | 0 | 0 |
| `O=C(NCCNc1cccnc1)c1cnc(CN2CCCC2)s1` | 0 | 0 | 0 |
| `CCC(CO)N(Cc1ccco1)C(=O)c1ccc(F)cc1Cl` (stereo not given) | 0 | 0 | 0 |
| `N#CC1=C(N)OC2=C(C(=O)CCC2)C1c1cccnc1` (stereo not given) | 0 | 0 | 0 |
| `Cc1ccc(C(=O)N2C[C@H]3CN(CCO)C[C@@]3(C(=O)O)C2)cc1Cl` | 0 | 0 | 0 |
| `Cc1ncc(CO)c(CN2C[C@@H]3[C@H](C2)[C@H]3C(=O)NCCn2ccnc2)c1O` | 0 | 0 | 0 |
| `CCN1CCC(CC(=O)NCC(O)c2ccc3ccccc3c2)CC1` (stereo not given) | 0 | 0 | 0 |

From ROBIN, a set of small-molecule microarray screens (doi:10.1002/anie.202211358).